# Laboratory results from PubChem BioAssay AID540275 (National Center for Advancing Translational Sciences (NCATS), 2011).
# By UniProt entry, the sequences of proteins in these tests, tags left out.
# UniProt Q8NER1, whole entry, looked up: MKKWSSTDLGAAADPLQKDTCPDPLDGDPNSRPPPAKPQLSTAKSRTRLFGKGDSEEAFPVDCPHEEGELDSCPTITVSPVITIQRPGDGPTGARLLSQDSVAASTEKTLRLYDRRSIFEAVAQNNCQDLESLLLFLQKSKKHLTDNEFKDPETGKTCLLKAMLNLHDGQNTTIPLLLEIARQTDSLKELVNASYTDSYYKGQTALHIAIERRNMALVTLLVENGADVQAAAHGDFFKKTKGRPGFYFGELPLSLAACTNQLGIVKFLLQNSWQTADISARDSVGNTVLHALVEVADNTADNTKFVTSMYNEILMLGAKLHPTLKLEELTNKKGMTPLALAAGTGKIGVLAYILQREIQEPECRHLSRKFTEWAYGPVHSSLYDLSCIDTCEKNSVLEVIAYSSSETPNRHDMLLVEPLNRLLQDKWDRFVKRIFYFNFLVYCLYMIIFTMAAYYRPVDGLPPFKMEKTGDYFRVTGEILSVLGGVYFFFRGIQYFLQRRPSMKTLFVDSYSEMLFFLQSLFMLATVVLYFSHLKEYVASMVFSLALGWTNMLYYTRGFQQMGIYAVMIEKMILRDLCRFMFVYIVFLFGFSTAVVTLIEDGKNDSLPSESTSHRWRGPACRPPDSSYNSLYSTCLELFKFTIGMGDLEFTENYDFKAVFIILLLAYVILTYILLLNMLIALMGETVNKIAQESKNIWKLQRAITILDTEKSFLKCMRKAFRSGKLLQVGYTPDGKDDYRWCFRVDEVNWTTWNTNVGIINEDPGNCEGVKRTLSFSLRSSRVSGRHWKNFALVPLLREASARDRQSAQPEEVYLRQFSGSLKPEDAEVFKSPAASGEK
# Several values for one entry are separate records, joined by “and”; a condition that tells them apart may be missing. Equal entries are not always repeated. The whole screen tested about 320,000 compounds, of which about 620 (0.19%) were called active. Inconclusive results, whose numbers are uncertain, are shown with a selection of clear calls. Rule as the data show it: active = activation above about 80%; inconclusive = between about 30% and that limit; inactive = weaker than that.
# Target: Transient receptor potential cation channel subfamily V member 1 (Homo sapiens) (UniProt Q8NER1)
# Experiment: HTS Assay for Compounds that Act as Agonists of the Vanilloid Receptor 1; also: 0% is about no effect
# Conditions: TRPV1-expressing cells, Fluo-8 calcium influx, agonist mode; at 8.33 µM, hits give high values
# Outline: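 Cells expressing TRPV1 were dye-loaded with Fluo-8 and read kinetically: 10 s baseline, 3 min after compound (agonist portion), then 2 min after EC20 capsaicin (allosteric enhancer portion). Calcium-bound dye fluorescence at 480/520 nm.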
row,Structure (SMILES),activation
1,O=C(Nc1nnc(-c2ccco2)o1)c1cccc(Cl)c1,inactive: -0.12%
2,CCCN1C(=O)CC(c2ccco2)Sc2ccccc21 (stereo unspecified),inconclusive: 49%
3,COc1ccc(Nc2ncnc3sc(C)cc23)cc1,inconclusive: 56.3%
4,CNC(=S)N1N=C(c2ccc(Br)cc2)CC1c1ccc(OC)cc1 (stereo unspecified),inactive: 0.294%
5,Cc1cnn(-c2cc(N/N=C/c3cccc(F)c3)ncn2)c1,inactive: -2.93%
6,O=C(C1=C[C@@H](C2CCCCC2)C[C@@H](OCc2ccc(CO)cc2)O1)N1CCN(Cc2ccc3c(c2)OCO3)CC1,inconclusive: 64.8%
7,O=C(COc1cccc(F)c1)Nc1ccc2[nH]c(=O)[nH]c2c1,inconclusive: 42%
8,O=C(c1cc(COc2ccc(F)cc2Cl)on1)N1CCCC(c2ccccc2)C1 (stereo unspecified),inconclusive: 33.3%
9,O=C(Nc1cccnc1)c1ccc2ccccc2c1O,inconclusive: 35.5%
10,COc1ccc(/C(C)=N\Nc2nc(-c3ccccc3)cc(=O)[nH]2)cc1,inconclusive: 54.7%
11,COc1ccc(Oc2c(-c3ccc(O)cc3O)n[nH]c2C)cc1,inactive: 0.843%
12,O=C(COC(=O)c1ccccc1F)NNC(=O)c1ccccc1,inactive: -2.05%
13,Cc1ccc(NC(=O)N2CCCCCC2)cc1,inconclusive: 45.9%
14,C=CCN1CN(S(=O)(=O)c2cccs2)c2nc3ccccc3nc21,inactive: 4.56%
15,CCN(CC)CCNC(=O)c1c(C)n(-c2ccccc2)c2cc(Br)c(OC)cc12,inconclusive: 47.3%
16,Cc1cc(NC(=O)c2cc(C(C)(C)C)oc2C)no1,inconclusive: 35.2%
17,COc1ccc(C2CC(=O)c3cnc(NC(=O)c4cccc(OC)c4)nc3C2)cc1 (stereo unspecified),inconclusive: 65.6%
18,COc1ccc(NC(=O)c2ccccc2NC(=O)CSc2ccc(C)cc2)cc1,inconclusive: 38.3%
19,Cc1ccc(Nc2nc(N)c3ccccc3n2)cc1Cl,inactive: 6.53%
20,CCn1cc(CNC(=O)CSc2nc(-c3ccc(OC)c(OC)c3)cc(C(F)(F)F)n2)c(C)n1,inconclusive: 36.1%
21,O=C(OCC(=O)N1CCCc2ccccc21)c1ccccc1[N+](=O)[O-],inconclusive: 39.4%
22,CCOc1ccc(C(=O)Nc2cccc(SC)c2)cc1,inconclusive: 42.4%
23,CCOc1ccccc1NC(=O)CN(C)S(=O)(=O)c1ccc(OC)c(C)c1,inconclusive: 55.5%

# Quoted from the entries so far for reference:
row,Structure (SMILES),activation
7,O=C(COc1cccc(F)c1)Nc1ccc2[nH]c(=O)[nH]c2c1,inconclusive: 42%
8,O=C(c1cc(COc2ccc(F)cc2Cl)on1)N1CCCC(c2ccccc2)C1 (stereo unspecified),inconclusive: 33.3%
9,O=C(Nc1cccnc1)c1ccc2ccccc2c1O,inconclusive: 35.5%
10,COc1ccc(/C(C)=N\Nc2nc(-c3ccccc3)cc(=O)[nH]2)cc1,inconclusive: 54.7%
11,COc1ccc(Oc2c(-c3ccc(O)cc3O)n[nH]c2C)cc1,inactive: 0.843%
12,O=C(COC(=O)c1ccccc1F)NNC(=O)c1ccccc1,inactive: -2.05%
13,Cc1ccc(NC(=O)N2CCCCCC2)cc1,inconclusive: 45.9%
14,C=CCN1CN(S(=O)(=O)c2cccs2)c2nc3ccccc3nc21,inactive: 4.56%
15,CCN(CC)CCNC(=O)c1c(C)n(-c2ccccc2)c2cc(Br)c(OC)cc12,inconclusive: 47.3%
16,Cc1cc(NC(=O)c2cc(C(C)(C)C)oc2C)no1,inconclusive: 35.2%
17,COc1ccc(C2CC(=O)c3cnc(NC(=O)c4cccc(OC)c4)nc3C2)cc1 (stereo unspecified),inconclusive: 65.6%
18,COc1ccc(NC(=O)c2ccccc2NC(=O)CSc2ccc(C)cc2)cc1,inconclusive: 38.3%
19,Cc1ccc(Nc2nc(N)c3ccccc3n2)cc1Cl,inactive: 6.53%
20,CCn1cc(CNC(=O)CSc2nc(-c3ccc(OC)c(OC)c3)cc(C(F)(F)F)n2)c(C)n1,inconclusive: 36.1%
21,O=C(OCC(=O)N1CCCc2ccccc21)c1ccccc1[N+](=O)[O-],inconclusive: 39.4%
22,CCOc1ccc(C(=O)Nc2cccc(SC)c2)cc1,inconclusive: 42.4%

# Following part

row,Structure (SMILES),activation
1,CCc1ccccc1NC(=O)Nc1ccc(F)cc1,inconclusive: 33.8%
2,O=C(COc1ccc2ccccc2c1)NCC1CCCO1 (stereo unspecified),inconclusive: 42.7%
3,CCOc1cc(C)nc(N2CCCC(C(=O)NCc3ccccc3F)C2)n1 (stereo unspecified),inconclusive: 62.5%
4,COc1ccc(CC(=O)Nc2cccc(-c3nnc(-c4cccc(C)c4)o3)c2)cc1OC,inconclusive: 77.5%
5,Cc1ccc(/C=N/c2sc3c(c2C#N)CCC3)s1,inconclusive: 30.3%
6,CC(C)COc1ccc(CNC(=S)Nc2ccccc2)cc1Cl,inconclusive: 34.2%
7,COc1ccc(/C=C(\C#N)c2nc(-c3cc4c(ccc5ccccc54)oc3=O)cs2)cc1O,inactive: -2.91%
8,CC(C)(C#N)Cc1cc(CC(C)(C)C#N)cc(C(C)(C)C)c1,inconclusive: 32.2%
9,O=C(COc1cccc(NC(=O)c2ccco2)c1)c1ccccc1,inconclusive: 32.7%
10,O=C(NNc1nc2ccccc2s1)c1ccc(F)cc1,inactive: 4.78%
11,Cc1ccc(C23CC4CC(CC(CC(=O)NC(C)(C)CO)(C4)C2)C3)cc1,inconclusive: 31.8%
12,O=C(Nc1ccccc1)N1CCN(c2ccc(F)cc2)CC1,inconclusive: 59.6%
13,CCSc1nnc(NC(=O)c2ccc(Br)s2)s1,inconclusive: 69.7%
14,CC(C)N1CCC(N2CCN(Cc3nc4ccccc4s3)CC2CCO)CC1 (stereo unspecified),inactive: 2.39%
15,COc1ccccc1CNC(=O)c1ccc(C)s1,inconclusive: 32.9%
16,c1ccc(CN2CCN(c3ncnc4nc[nH]c34)CC2)cc1,inactive: 2.73%
17,O=C(Nc1ccc2c(c1)OCCO2)c1ccc(NC(=O)C2CCCO2)cc1 (stereo unspecified),inactive: -1.79%
18,O=C(Nc1ccccc1)Nc1ccc2ccccc2c1,inconclusive: 65.6%
19,CN1/C(=C\C(=O)COC(=O)c2ccc(O)cc2)C(C)(C)c2ccccc21,inconclusive: 55.8%
20,N#C/C(=C(/O)COc1ccc(Cl)cc1)c1nc2ccccc2s1,inactive: 0.126%
21,Cc1ccc(OCc2cc(C(=O)N3CCN(C)C[C@@H]3c3ccccc3)no2)cc1C,inconclusive: 41.5%
22,CN(CC(=O)Nc1cccc(F)c1)CC(=O)Nc1ccccc1Oc1ccccc1,inconclusive: 36.5%
23,COCCCC1CCN(C(=O)C2CCC(=O)N(Cc3cccc(F)c3)C2)CC1 (stereo unspecified),inconclusive: 42.9%

row,Structure (SMILES),activation
1,CC(C)(C)c1ccc(C(=O)Nc2ccc(C=C(C#N)C#N)cc2)cc1,active: 89.4%
2,O=C(CCSc1ccccc1)NCCSCc1ccco1,inconclusive: 46.2%
3,CCOC(=O)C1CN(S(=O)(=O)c2ccc(C)cc2)c2cc(S(=O)(=O)CC)ccc2O1 (stereo unspecified),inconclusive: 40.4%
4,S=C(NCCc1ccccc1)NC1CCC(NC(=S)NCCc2ccccc2)CC1 (stereo unspecified),inconclusive: 32.6%
5,CC(C)c1ccc(NC2CCCN(C(=O)CCN3CCCO3)C2)cc1 (stereo unspecified),inconclusive: 70.7%
6,COc1ccc(-c2n[nH]c(C(F)(F)F)c2-c2cc3ccccc3o2)c(O)c1,inconclusive: 52.5%
7,CCOC(=O)CNC(=O)CSc1nc2nc(C)c(Br)cc2[nH]1,inactive: -1%
8,CC1CCc2c(nc3ncnn3c2Nc2ccc(OC(F)(F)F)cc2)C1 (stereo unspecified),inconclusive: 38.1%
9,Cc1ccc(NC(=O)CCNC(=O)c2ccc(Cl)cc2)cc1C,inconclusive: 32.8%
10,O=C(Nc1ccccc1F)Oc1cccc(OC(=O)Nc2ccccc2F)c1,inconclusive: 34.8%
11,CCCCN=c1scc(-c2ccc3c(c2)NC(=O)CO3)n1N=C1CCCC1,inactive: 7.86%
12,O=C(CSc1ccc(Cl)cc1)NNC(=O)c1cccnc1,inconclusive: 65.2%
13,COC(=O)c1cc(C(=O)c2ccc(C(C)(C)C)cc2)c[nH]1,inconclusive: 62.8%
14,COC(=O)CCN(c1ccccc1)S(=O)(=O)c1cc(-c2cc(C)no2)ccc1C,inconclusive: 42.3%
15,COc1ccccc1NC(=O)OCC#CCOC(=O)Nc1ccccc1OC,inconclusive: 53%
16,CC(C)NC(=O)c1sc2c(c1C(=O)Nc1cccnc1)CCCC2,inconclusive: 48.3%
17,C=CCn1c(SCC(=O)N2CCOCC2)nc2sc(C)c(C)c2c1=O,inconclusive: 69.4%
18,O=C(C1=C[C@@H](C2CCCCC2)C[C@@H](OCc2ccc(CO)cc2)O1)N1CCOCC1,inconclusive: 34.8%
19,C=CCn1nc(-c2ccccc2)c(N2CCCCC2)cc1=O,inconclusive: 54.7%
20,CCNC(=S)NNC(=O)c1cc(-c2cccc(C)c2)nc2ccccc12,inactive: 22.5%
21,O=C(c1ccc(Cl)cc1)N1CCN(c2ccnc3cc(Cl)ccc23)CC1,inconclusive: 44.7%
22,O=C(Cc1ccccc1)NCCn1ccc2ccccc21,inconclusive: 60.4%
23,COc1ccc(C(=O)Nc2nc3ccc4nc(C)sc4c3s2)cc1,inactive: 16.5%

row,Structure (SMILES),activation
1,O=C(NC1CCCCC1)c1cc([N+](=O)[O-])ccc1N1CCCCC1,inconclusive: 30.6%
2,COc1ccc(/C=N/NC(=O)c2ccco2)cc1OCc1ccccc1,inconclusive: 39.4%
3,O=C(O)CC/C(=N\NC(=O)c1ccc(F)cc1)c1ccc(Br)cc1,inconclusive: 40.1%
4,Cc1cccc(C(=O)Nc2ccccc2NC(=O)c2cccc(C)c2)c1,inconclusive: 59.8%
5,O=C(Cn1c(=O)oc2ccccc21)Nc1nc(-c2ccc(Br)cc2)cs1,inconclusive: 36.5%
6,Cc1cc(N2CCN(C)CC2)nc2ccc(NC(=O)c3cccnc3Cl)cc12,inactive: 0.47%
7,CCCCCCCN1C2=NCCCN2c2ccccc21,inactive: -2.91%
8,CCOc1ccc(S(=O)(=O)N2CCCC(C(=O)NCc3ccncc3)C2)cc1C (stereo unspecified),inconclusive: 35.2%
9,O=C(NCCNc1ccc([N+](=O)[O-])cc1C(F)(F)F)c1ccccc1,inconclusive: 60.3%
10,Cc1ccc(C(=O)Nc2ccc3c(c2)C(=O)N(CC2CCCO2)C3=O)cc1 (stereo unspecified),inconclusive: 43.1%
11,COc1ccc(Cn2nc(-c3ccccc3)c(N3CCCCC3)cc2=O)cc1,active: 85%
12,COc1cccc(CC2CC(=O)N(CCc3ccc4c(c3)OCO4)C2=O)c1 (stereo unspecified),inactive: -3.27%
13,Cc1ccc(NC(=O)c2ocnc2C)cc1Cl,inconclusive: 55.8%
14,Cc1ccc(NC(=O)NCC2CC2(Cl)Cl)cc1 (stereo unspecified),inconclusive: 54.9%
15,O=C(CSc1nc2ccccc2c(=O)n1Cc1ccco1)c1ccc(F)cc1,inconclusive: 38.6%
16,COc1ccc(C)cc1NC(=O)CSc1nnc(COc2ccccc2)n1Cc1ccco1,inconclusive: 60.8%
17,CC1CCC(C(C)C)C(OC(=O)Cn2c(-c3ccc(Br)cc3)[n+](C)c3ccccc32)C1 (stereo unspecified),inactive: -0.718% and inactive: 5.48%
18,Cc1oc2c(c(C)cc3oc(=O)c(CC(=O)NCC(=O)NCC(=O)O)c(C)c32)c1C,inactive: -1.86%
19,Cc1ccc(/C=N/NC(=O)c2ccc(Cn3cc([N+](=O)[O-])cn3)o2)cc1,inactive: 8.58%
20,CCOC(=O)c1sc(-c2ccccc2)cc1NC(=O)Nc1ccccc1,active: 87.8%
21,CC(=O)c1ccc(NC(=O)Nc2ccc(Br)cc2C)cc1,inconclusive: 55.3%
22,O=C(CCCl)Nc1cccc2cccnc12,inactive: -4.41%
